The results in this text go back to PubChem BioAssay AID2685 (National Center for Advancing Translational Sciences (NCATS), 2010).

This assay can be described thus: qHTS Assay for Lipid Storage Modulators in Drosophila S3 Cells.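 For cell number change: cells counted by Cell Tracker Red CMTPX staining in the red channel.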 The settings on record: BODIPY lipid droplet fluorescence, 18-24 h; for cell number change: measured here: cell count max response, cells fed with added oleic acid. In short, it runs like this:
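Laser-scanning cytometry quantifies lipid droplet accumulation (500–530 nm total intensity; droplet/cell object ratio) in oleic acid-fed (400 uM added) Drosophila S3 cells treated with a concentration series. 20 uM Triacsin C defined 100% inhibition.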
A general note: Quantitative high-throughput screening tests each substance at several concentrations.

[1] abbreviates: measured here: lipid fluorescence (Fed channel) AC50, cells fed with added oleic acid.
Where [2] appears, read: measured here: cell number channel AC50, cells fed with added oleic acid.

The list shows a part of the results. Shown are side measurements of this screen, not its main read-out; they come without a call. Most of these compounds were active or inconclusive in the main read-out, so they are no random draw. Words in brackets tell the shape of the fitted curve; partial curves, single points and poor fits give uncertain potencies.

As to `COc1ccc(NC(=O)CN(C)C(=O)CSCc2c(C)noc2C)cc1`, the cell number change was -11.3%.
On to `COc1ccc(NC(=O)COC(=O)c2c(-c3ccccc3)noc2C)cc1`, for which the cell number change is -6.24%. Under setting [1], the concentration at half-maximal activity (AC50) (as a rule, the concentration at which the activity in the assay is half-maximal) is 0.0146 µM [falling, partial curve, poor fit].
With `CCOC(=O)CC(=O)CSc1nc(C)cc(-c2cccnc2)c1C#N`, the cell number change was 4.72%. Under setting [1], the AC50 was 13 µM [rising, partial curve, poor fit].
For the molecule `O=C(O)CC12CC3CC(C1)CC(n1ncc(NCc4ccccc4Cl)c(Cl)c1=O)(C3)C2`, the cell number change was -44.9%. Further, the AC50 under setting [2] is 9.2 µM [falling, partial curve]. Under setting [1], the AC50 was 29.1 µM [falling, partial curve, poor fit].
On to `COC(=O)c1ccccc1NC(=O)c1cc2nc(C3CC3)cc(C(F)(F)F)n2n1`, for which the cell number change is -15.5%. In addition, the half-maximal activity concentration (AC50) under setting [1] is 0.0206 µM [falling, full curve, poor fit].
Regarding `O=C(O)c1cccc(NC2=C(Cl)C(=O)c3ccccc3C2=O)c1`, the cell number change is -47%. Further, the AC50 under setting [2] is 29.1 µM [falling, single point].
Turning to `O=C(O)c1ccc(-c2ccccc2)[nH]1`, the cell number change is -14%. Besides, the half-maximal activity concentration (AC50) under setting [2] is 6.51 µM [falling, single point]. Under setting [1], the half-maximal activity concentration (AC50) was 1.64 µM [falling, full curve, poor fit].
On to `COCC(C)n1c(SCC(=O)NC(=O)Nc2ccc3c(c2)OCCO3)nc2ccccc2c1=O` (centres undefined), for which the half-maximal activity concentration (AC50) under setting [1] is 0.291 µM [rising, partial curve, poor fit].
As for `CC(=O)c1c(C)[nH]c(C(=O)OC(C)C(=O)Nc2ccc(C)c(S(=O)(=O)N3CCOCC3)c2)c1C` (centres undefined), the cell number change was found to be 39%. Further, the concentration at half-maximal activity (AC50) under setting [2] is 29.1 µM [rising, single point]. The half-maximal activity concentration (AC50) under setting [1] is 20.6 µM [rising, partial curve].
As for `COc1cc(OC)c(NS(=O)(=O)c2ccc(Cl)c(C(=O)OC(C)C(=O)N3CCCC3)c2)cc1Cl` (centres undefined), the cell number change was -1.5%. Further, under setting [1], the AC50 was 20.6 µM [rising, partial curve].
`CCOc1cc([C@H]2[C@@H]3CCCC[C@]3(O)CCN2CC(=O)NCc2ccco2)ccc1O`: the cell number change is -3.44%.
For the molecule `COc1cccc(/C=C/C(=O)NNC(=O)c2ccco2)c1OC`, the cell number change was -17.4%.
On to `COc1c(Cl)cnn(-c2cccc(C)c2)c1=O`, for which the cell number change was found to be 3.88%. In addition, under setting [1], the AC50 was 1.46 µM [rising, partial curve].
`O=C(c1cc(-c2cccnc2)nc2ccc(Cl)cc12)N1CCN(S(=O)(=O)c2cccs2)CC1`: the cell number change is -5.95%. The AC50 under setting [1] is 6.51 µM [rising, single point].
Regarding `CCCCC1CCC(C(=O)N2CCOCC2)CC1` (centres undefined), the cell number change was -30.7%. Besides, under setting [2], the half-maximal activity concentration (AC50) is 5.8 µM [falling, full curve, poor fit]. Besides, the half-maximal activity concentration (AC50) under setting [1] is 29.1 µM [rising, single point].
Regarding `COc1ccc(C(=O)NC(C(=O)OCC(=O)Nc2sccc2C(N)=O)C(C)C)cc1` (centres undefined), the cell number change was found to be 9.27%. In addition, the half-maximal activity concentration (AC50) under setting [2] was 0.0116 µM [rising, full curve, poor fit]. The AC50 under setting [1] was 1.64 µM [rising, full curve, poor fit].
`O=C(Nc1ccc(Cl)c([N+](=O)[O-])c1)c1ccncc1`: the cell number change came out at 9.33%. Moreover, the AC50 under setting [2] was 4.61 µM [falling, single point].
Take `CCOc1ccc(CCNC(=O)COC(=O)/C=C/c2ccc(OCC#N)c(OC)c2)cc1OCC`: the cell number change is -72.4%. Under setting [2], the AC50 was 1.84 µM [falling, full curve]. The AC50 under setting [1] is 1.46 µM [falling, full curve].
Consider `CCC1=NN2C(=N)/C(=C/c3cc(C)n(-c4ccccc4)c3C)C(=O)N=C2S1`, for which the cell number change was found to be 38.8%. For the same molecule, the AC50 under setting [2] is 0.651 µM [rising, partial curve, poor fit]. In addition, the AC50 under setting [1] is 29.1 µM [rising, single point].
Turning to `Fc1ccc(NC(=S)Nc2ccc3nccnc3c2)cc1`, the cell number change was determined as 130%. The AC50 under setting [2] is 29.1 µM [rising, single point].
Turning to `Cc1cc(NC(=O)NC2CCCN2S(=O)(=O)c2ccc(Cl)cc2)no1` (centres undefined), the cell number change was determined as 6.98%. Moreover, the AC50 under setting [1] is 0.116 µM [rising, full curve].
Regarding `O=c1c2ccccc2nc(SCc2nc(-c3ccccc3)no2)n1-c1ccc(F)cc1`, the half-maximal activity concentration (AC50) under setting [2] is 0.259 µM [rising, full curve, poor fit] and the concentration at half-maximal activity (AC50) under setting [1] is 0.461 µM [rising, full curve].
With `CC(NC(=S)Nc1cccc(C(F)(F)F)c1)C(C)(C)C` (centres undefined), the cell number change is -8.62%. Also, under setting [1], the AC50 is 23.1 µM [falling, single point].
Turning to `Cc1ccccc1NC(=O)c1ccc(-c2ccc(Cl)cc2Cl)o1`, the cell number change is -7.79%. The AC50 under setting [2] was 2.31 µM [rising, partial curve]. Also, the AC50 under setting [1] was 2.06 µM [rising, partial curve].
Regarding `CC1CC(C)(C)NC(=S)N1CC(=O)NCc1ccc(F)cc1` (centres undefined), under setting [1], the AC50 was 0.731 µM [rising, full curve, poor fit].
Take `Cc1cc(N2C(=O)C(O)=C(C(=O)c3cc4ccccc4o3)C2c2ccc(Br)cc2)no1` (centres undefined): the cell number change is 10.9%. In addition, under setting [1], the half-maximal activity concentration (AC50) is 18.4 µM [rising, single point].
Consider `COc1ccc(C(=O)NCC(=O)NC2=NCCS2)cc1`, for which the cell number change is -38.2%. Besides, under setting [2], the AC50 is 10.3 µM [falling, partial curve]. Further, the AC50 under setting [1] was 23.1 µM [falling, partial curve].
With `Cc1cc(C(F)(F)F)nn1CCCNC(=O)c1cnccn1`, the cell number change amounted to 12.7%. Also, the AC50 under setting [1] is 2.06 µM [rising, full curve].
On to `O=C(NN1C(=O)/C(=C/c2cccc(O)c2)SC1=S)c1ccccc1O`, for which the cell number change was -14.5%. Besides, under setting [1], the AC50 was 20.6 µM [rising, partial curve].
`COc1cc2c3nnc(-c4ccc(F)cc4)c-3cn(Cc3ccccc3)c2cc1OC`: the cell number change was found to be 1.35%. Also, under setting [1], the concentration at half-maximal activity (AC50) was 29.1 µM [falling, single point].
Consider `Cc1cc(/C=N\NC(=O)COc2cccc3cccnc23)c(C)n1-c1ccccc1`, for which the cell number change was 9.97%. Moreover, the concentration at half-maximal activity (AC50) under setting [1] is 6.51 µM [rising, single point].
For the molecule `CCOc1cc2c(cc1C(C)(C)C)NC(=O)CS2`, the cell number change is -40.9%. Also, the AC50 under setting [2] is 29.1 µM [falling, single point]. For the same molecule, the half-maximal activity concentration (AC50) under setting [1] is 2.91 µM [rising, partial curve].
`Cc1cc(OCC(=O)NCCc2c[nH]c3ccccc23)c2c(C)c(C)c(=O)oc2c1`: the cell number change is -35%. For the same molecule, the AC50 under setting [2] was 23.1 µM [falling, single point]. The AC50 under setting [1] was 5.17 µM [falling, full curve].
In the case of `Cc1ccc2nc(NCc3ccccc3)c(C=NCc3cccnc3)c(=O)n2c1`, the cell number change was found to be 5.8%. Also, under setting [1], the AC50 was 2.06 µM [rising, single point].
